The chains are these.
B1: Sun1 (protein, UniProt Q9D666 1-913)
chain: MDFSRLHTYTPPQCVPENTGYTYALSSSYSSDALDFETEHKLEPVFDSPRMSRRSLRLVTTASYSSGDSQAIDSHISTSRATPAKGRETRTVKQRRSASKPAFSINHLSGKGLSSSTSHDSSCSLRSATVLRHPVLDESLIREQTKVDHFWGLDDDGDLKGGNKAATQGNGELAAEVASSNGYTCRDCRMLSARTDALTAHSAIHGTTSRVYSRDRTLKPRGVSFYLDRTLWLAKSTSSSFASFIVQLFQVVLMKLNFETYKLKGYESRAYESQSYETKSHESEAHLGHCGRMTAGELSRVDGESLCDDCKGKKHLEIHTATHSQLPQPHRVAGAMGRLCIYTGDLLVQALRRTRAAGWSVAEAVWSVLWLAVSAPGKAASGTFWWLGSGWYQFVTLISWLNVFLLTRCLRNICKVFVLLLPLLLLLGAGVSLWGQGNFFSLLPVLNWTAMQPTQRVDDSKGMHRPGPLPPSPPPKVDHKASQWPQESDMGQKVASLSAQCHNHDERLAELTVLLQKLQIRVDQVDDGREGLSLWVKNVVGQHLQEMGTIEPPDAKTDFMTFHHDHEVRLSNLEDVLRKLTEKSEAIQKELEETKLKAGSRDEEQPLLDRVQHLELELNLLKSQLSDWQHLKTSCEQAGARIQETVQLMFSEDQQGGSLEWLLEKLSSRFVSKDELQVLLHDLELKLLQNITHHITVTGQAPTSEAIVSAVNQAGISGITEAQAHIIVNNALKLYSQDKTGMVDFALESGGGSILSTRCSETYETKTALLSLFGVPLWYFSQSPRVVIQPDIYPGNCWAFKGSQGYLVVRLSMKIYPTTFTMEHIPKTLSPTGNISSAPKDFAVYGLETEYQEEGQPLGRFTYDQEGDSLQMFHTLERPDQAFQIVELRVLSNWGHPEYTCLYRFRVHGEPIQ
B2: Sun2 (protein, UniProt Q8BJS4 1-731)
chain: MSRRSQRLTRYSQDDNDGGSSSSGASSVAGSQGTVFKDSPLRTLKRKSSNMKHLSPAPQLGPSSDSHTSYYSESVVRESYIGSPRAVSLARSALLDDHLHSEPYWSGDLRGRRRRGTGGSESSKANGLTAESKASEDFFGSSSGYSSEDDLAGYTDSDQHSSGSRLRSAASRAGSFVWTLVTFPGRLFGLLYWWIGTTWYRLTTAASLLDVFVLTRSRHFSLNLKSFLWFLLLLLLLTGLTYGAWHFYPLGLQTLQPAVVSWWAAKESRKQPEVWESRDASQHFQAEQRVLSRVHSLERRLEALAADFSSNWQKEAIRLERLELRQGAAGHGGGSSLSHEDALSLLEGLVSRREATLKEDLRRDTVAHIQEELATLRAEHHQDSEDLFKKIVQASQESEARVQQLKTEWKSMTQEAFQESSVKELGRLEAQLASLRQELAALTLKQNSVADEVGLLPQKIQAARADVESQFPDWIRQFLLGDRGARSGLLQRDEMHAQLQELENKILTKMAEMQGKSAREAAASLGQILQKEGIVGVTEEQVHRIVKQALQRYSEDRIGMVDYALESGGASVISTRCSETYETKTALLSLFGIPLWYHSQSPRVILQPDVHPGNCWAFQGPQGFAVVRLSARIRPTAVTLEHVPKALSPNSTISSAPKDFAIFGFDEDLQQEGTLLGTFAYDQDGEPIQTFYFQASKMATYQVVELRILTNWGHPEYTCIYRFRVHGEPAH

Amino acid sequences for entries named in this document (tags omitted).
UniProt P46938: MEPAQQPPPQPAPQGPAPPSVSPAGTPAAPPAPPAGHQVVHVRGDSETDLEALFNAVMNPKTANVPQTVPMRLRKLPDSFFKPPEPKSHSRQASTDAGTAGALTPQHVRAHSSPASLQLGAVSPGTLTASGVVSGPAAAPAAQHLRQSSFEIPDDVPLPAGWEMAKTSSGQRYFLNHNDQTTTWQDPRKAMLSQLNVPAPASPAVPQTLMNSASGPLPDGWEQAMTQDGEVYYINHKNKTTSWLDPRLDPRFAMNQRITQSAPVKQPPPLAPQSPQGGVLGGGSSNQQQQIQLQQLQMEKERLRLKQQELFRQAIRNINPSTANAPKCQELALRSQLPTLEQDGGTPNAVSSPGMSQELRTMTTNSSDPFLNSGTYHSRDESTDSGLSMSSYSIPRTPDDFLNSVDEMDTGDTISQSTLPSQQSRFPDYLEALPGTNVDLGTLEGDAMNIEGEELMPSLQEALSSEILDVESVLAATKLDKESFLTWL
UniProt P35385: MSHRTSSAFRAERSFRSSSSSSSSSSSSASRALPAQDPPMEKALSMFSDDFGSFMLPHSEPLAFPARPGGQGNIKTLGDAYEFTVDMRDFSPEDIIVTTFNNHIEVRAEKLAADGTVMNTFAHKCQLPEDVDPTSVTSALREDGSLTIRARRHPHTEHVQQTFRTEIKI
UniProt Q921T2: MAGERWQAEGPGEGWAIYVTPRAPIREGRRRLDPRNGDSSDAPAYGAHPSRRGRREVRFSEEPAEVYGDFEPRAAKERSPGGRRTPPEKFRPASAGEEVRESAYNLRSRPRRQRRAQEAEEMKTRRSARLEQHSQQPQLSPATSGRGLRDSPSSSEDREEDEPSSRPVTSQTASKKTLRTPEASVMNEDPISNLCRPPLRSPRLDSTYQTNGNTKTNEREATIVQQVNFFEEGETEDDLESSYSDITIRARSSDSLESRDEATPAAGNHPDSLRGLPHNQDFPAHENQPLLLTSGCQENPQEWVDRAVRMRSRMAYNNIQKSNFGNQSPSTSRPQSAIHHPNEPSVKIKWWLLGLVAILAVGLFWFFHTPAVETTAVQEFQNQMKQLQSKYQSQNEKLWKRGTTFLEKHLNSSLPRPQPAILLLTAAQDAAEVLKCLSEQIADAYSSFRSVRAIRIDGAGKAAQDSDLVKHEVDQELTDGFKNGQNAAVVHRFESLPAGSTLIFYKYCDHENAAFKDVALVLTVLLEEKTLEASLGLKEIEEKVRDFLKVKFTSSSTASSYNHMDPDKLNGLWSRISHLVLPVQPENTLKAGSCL
UniProt Q8VHX6: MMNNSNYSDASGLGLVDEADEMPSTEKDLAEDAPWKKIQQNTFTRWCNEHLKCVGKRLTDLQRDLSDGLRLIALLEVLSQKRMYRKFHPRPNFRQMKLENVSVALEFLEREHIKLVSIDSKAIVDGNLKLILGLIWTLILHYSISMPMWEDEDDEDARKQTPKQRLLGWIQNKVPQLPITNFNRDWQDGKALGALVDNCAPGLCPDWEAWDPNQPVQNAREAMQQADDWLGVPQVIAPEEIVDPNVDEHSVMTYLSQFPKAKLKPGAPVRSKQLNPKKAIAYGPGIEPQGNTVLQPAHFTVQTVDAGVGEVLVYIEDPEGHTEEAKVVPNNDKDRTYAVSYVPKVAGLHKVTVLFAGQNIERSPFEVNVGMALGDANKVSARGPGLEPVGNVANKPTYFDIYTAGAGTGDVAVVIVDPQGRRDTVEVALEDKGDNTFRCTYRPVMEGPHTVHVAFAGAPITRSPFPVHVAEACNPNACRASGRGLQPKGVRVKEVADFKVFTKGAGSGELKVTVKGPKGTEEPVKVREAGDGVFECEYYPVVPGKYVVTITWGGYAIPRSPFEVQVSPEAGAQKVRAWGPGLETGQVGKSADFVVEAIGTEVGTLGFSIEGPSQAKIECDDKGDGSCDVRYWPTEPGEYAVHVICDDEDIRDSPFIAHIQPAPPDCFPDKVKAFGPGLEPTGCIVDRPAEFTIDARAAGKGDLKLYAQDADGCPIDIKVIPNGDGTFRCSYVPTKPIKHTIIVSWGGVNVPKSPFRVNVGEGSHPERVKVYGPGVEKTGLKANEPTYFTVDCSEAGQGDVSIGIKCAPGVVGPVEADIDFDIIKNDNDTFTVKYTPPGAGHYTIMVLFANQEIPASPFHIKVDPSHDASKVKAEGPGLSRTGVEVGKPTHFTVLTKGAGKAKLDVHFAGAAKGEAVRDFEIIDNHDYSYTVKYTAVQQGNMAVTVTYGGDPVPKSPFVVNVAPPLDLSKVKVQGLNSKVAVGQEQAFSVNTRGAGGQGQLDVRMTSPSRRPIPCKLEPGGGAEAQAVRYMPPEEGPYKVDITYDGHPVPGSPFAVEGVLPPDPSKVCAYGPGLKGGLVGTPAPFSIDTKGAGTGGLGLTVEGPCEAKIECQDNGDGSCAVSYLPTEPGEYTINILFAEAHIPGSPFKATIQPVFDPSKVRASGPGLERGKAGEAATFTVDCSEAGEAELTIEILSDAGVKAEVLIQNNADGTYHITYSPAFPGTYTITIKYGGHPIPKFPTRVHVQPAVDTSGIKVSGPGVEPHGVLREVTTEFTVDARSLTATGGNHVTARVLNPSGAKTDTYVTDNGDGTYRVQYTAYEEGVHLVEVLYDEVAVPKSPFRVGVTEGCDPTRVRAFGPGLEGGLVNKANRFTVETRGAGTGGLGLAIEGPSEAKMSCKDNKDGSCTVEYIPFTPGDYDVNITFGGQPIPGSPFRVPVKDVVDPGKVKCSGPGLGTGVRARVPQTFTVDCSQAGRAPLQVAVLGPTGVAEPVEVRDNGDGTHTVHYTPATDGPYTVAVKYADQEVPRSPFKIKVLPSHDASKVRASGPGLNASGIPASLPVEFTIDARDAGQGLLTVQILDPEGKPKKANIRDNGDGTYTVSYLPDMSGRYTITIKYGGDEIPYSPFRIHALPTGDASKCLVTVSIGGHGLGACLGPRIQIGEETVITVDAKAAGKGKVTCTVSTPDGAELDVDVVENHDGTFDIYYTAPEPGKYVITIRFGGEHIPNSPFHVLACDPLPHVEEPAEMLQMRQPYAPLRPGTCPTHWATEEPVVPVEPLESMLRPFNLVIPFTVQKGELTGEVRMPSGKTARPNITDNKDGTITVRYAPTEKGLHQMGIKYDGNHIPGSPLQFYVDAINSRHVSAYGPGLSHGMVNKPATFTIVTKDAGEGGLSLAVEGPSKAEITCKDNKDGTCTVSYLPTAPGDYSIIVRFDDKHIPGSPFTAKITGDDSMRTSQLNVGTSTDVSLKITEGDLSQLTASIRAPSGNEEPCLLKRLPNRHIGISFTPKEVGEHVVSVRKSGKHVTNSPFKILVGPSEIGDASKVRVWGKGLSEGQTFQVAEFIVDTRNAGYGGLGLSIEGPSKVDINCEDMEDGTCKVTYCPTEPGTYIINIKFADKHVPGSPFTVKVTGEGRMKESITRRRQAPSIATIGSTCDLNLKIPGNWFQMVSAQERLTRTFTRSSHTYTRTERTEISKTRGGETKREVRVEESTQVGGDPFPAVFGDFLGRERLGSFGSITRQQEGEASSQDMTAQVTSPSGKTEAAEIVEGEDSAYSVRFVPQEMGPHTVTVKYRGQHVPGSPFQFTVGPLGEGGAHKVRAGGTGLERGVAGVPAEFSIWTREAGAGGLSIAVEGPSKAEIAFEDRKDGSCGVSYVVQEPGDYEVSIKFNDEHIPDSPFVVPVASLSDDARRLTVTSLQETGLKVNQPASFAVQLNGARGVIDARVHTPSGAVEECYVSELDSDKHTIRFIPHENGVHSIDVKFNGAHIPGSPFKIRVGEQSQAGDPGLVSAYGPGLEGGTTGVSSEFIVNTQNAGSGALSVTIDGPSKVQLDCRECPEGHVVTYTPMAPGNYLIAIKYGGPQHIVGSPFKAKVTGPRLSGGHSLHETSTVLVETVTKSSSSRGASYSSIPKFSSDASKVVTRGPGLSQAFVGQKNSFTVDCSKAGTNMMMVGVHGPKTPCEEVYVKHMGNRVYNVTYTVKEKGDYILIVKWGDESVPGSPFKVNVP
UniProt Q6P5H2: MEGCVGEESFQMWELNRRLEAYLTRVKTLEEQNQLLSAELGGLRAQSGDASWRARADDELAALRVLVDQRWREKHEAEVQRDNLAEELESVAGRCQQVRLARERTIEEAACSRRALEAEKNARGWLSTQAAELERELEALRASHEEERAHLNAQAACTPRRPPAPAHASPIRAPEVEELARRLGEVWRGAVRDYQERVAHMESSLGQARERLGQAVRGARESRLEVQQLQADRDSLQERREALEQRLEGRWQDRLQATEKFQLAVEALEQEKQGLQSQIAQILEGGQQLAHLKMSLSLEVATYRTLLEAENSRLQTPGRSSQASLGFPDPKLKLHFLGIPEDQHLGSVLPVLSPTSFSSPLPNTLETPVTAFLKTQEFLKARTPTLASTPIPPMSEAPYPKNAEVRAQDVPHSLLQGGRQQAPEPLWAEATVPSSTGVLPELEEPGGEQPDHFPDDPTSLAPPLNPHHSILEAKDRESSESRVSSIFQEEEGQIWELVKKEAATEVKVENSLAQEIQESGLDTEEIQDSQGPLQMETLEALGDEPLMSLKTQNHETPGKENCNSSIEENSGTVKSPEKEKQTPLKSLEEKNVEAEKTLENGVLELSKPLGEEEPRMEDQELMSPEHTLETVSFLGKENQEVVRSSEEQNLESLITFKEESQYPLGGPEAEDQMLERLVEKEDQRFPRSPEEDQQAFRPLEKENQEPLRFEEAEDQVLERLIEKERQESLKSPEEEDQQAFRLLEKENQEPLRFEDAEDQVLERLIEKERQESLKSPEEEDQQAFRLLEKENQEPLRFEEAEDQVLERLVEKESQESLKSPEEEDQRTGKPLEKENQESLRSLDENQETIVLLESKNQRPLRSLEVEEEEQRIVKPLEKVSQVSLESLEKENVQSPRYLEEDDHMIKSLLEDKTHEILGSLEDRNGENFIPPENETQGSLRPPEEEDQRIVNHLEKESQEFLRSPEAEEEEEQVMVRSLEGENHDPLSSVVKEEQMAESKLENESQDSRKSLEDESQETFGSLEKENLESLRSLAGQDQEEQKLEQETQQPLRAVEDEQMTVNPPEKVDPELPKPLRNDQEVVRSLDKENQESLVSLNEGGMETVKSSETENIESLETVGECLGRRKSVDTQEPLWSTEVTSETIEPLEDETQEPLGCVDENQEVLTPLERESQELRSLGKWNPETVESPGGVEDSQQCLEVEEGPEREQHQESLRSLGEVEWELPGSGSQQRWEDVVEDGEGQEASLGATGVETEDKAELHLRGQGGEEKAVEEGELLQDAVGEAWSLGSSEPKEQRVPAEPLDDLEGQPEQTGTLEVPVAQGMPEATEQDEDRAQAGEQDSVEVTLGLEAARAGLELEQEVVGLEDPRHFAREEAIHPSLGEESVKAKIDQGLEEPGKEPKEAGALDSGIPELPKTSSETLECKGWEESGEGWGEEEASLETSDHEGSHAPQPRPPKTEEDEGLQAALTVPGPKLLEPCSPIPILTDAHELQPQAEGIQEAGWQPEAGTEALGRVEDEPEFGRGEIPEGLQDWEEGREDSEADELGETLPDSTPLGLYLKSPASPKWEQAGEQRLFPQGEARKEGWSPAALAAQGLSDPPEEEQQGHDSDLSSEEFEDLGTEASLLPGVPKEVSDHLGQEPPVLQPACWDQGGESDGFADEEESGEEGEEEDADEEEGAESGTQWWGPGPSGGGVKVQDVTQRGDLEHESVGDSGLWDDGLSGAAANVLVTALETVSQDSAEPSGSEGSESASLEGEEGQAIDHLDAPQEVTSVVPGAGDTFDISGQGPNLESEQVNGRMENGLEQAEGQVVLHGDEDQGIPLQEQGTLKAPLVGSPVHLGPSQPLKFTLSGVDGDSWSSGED

No constants are given. Whether binding was seen depends on the method and setting. Binding seen in cells or lysates may run through a third protein. Here binding means that the protein was enriched with, or labelled near, the bait; the list need not be complete.

This assay deals with YAP (mouse (endogenous in adult mouse heart)) (UniProt P46938). As to the kind of experiment: affinity purification with mass spectrometry.
Hspb7 (from UniProt P35385 1-169): the binding entry is listed as “binds”. As to Tor1aip1 (from UniProt Q921T2 1-595), the binding entry is “binds”.

Consider Xirp2 (from UniProt Q4U4S6 1-3784), for which the binding result is reported as “binds”.

As for Flnc (from UniProt Q8VHX6 1-2726), the binding result is given as “binds”. For the molecule Nestin (from UniProt Q6P5H2 1-1864), the binding entry is “binds”. Take B1: the binding entry is reported as “binds”. With B2, the binding result was “binds”.

The values are drawn from publication doi:10.1101/2020.01.07.897199.
